Patent US20030022345A1
No constants are given. Whether binding was seen depends on the method and setting. For part of these data: Binding seen in cells or lysates may run through a third protein. Tags and fused reporters may be left off the sequences shown.

Legend:
FLAG-eIF4E [1] = assay: heading of the results (co-immunoprecipitation and resin binding)
FLAG-eIF4E [2] = assay: anti-HA co-immunoprecipitation from HeLa cells co-expressing FLAG-eIF4E, Western blot
FLAG-eIF4E [3] = assay: summary in the discussion

binding (FLAG-eIF4E [1]): no binding
binding (FLAG-eIF4E [2]): no binding
binding (FLAG-eIF4E [3]): no binding
B1: HA-tagged p97 (N-terminal three copies of HA; pcDNA3-HA-p97) (protein, not shown: small tags and cut ends)
chain: VESAIAEGGASRFSASSGGGGSRGAPQHYPKTAGNSEFLGKTPGQNAQKWIPARSTRRDDNSAANNSANEKERHDAIFRKVRGILNKLTPEKFDKLCLELLNVGVESKLILKGVILLIVDKALEEPKYSSLYAQLCLRLAEDAPNFDGPAAEGQPGQKQSTTFRRLLISKLQDEFENRTRNVDVYDKRENPLLPEEEEQRAIAKIKMLGNIKFIGELGKLDLIHESILHKCIKTLLEKKKRVQLKDMGEDLECLCQIMRTVGPRLDHERAKSLMDQYFARMCSLMLSKELPARIRFLLQDTVELREHHWVPRKAFLDNGPKTINQIRQDAVKDLGVFIPAPMAQGMRSDFFLEGPFMPPRMKMDRDPLGGLADMFGQMPGSGIGTGPGVIQDRFSPTMGRHRSNQLFNGHGGHIMPPTQSQFGEMGGKFMKSQGLSQLYHNQSQGLLSQLQGQSKDMPPRFSKKGQLNADEISLRPAQSFLMNKNQVPKLQPQITMIPPSAQPPRTQTPPLGQTPQLGLKTNPPLIQEKPAKTSKKPPPSKEELLKLTETVVTEYLNSGNANEAVNGVREMRAPKHFLPEMLSKVIILSLDRSDEDKEKASSLISLLKQEGIATSDNFMQAFLNVLDQCPKLEVDIPLVKSYLAQFAARAIISELVSISELAQPLESGTHFPLFLLCLQQLAKLQDREWLTELFQQSKVNMQKMLPEIDQNKDRMLEILEGKGLSFLFPLLKLEKELLKQIKLDPSPQTIYKWIKDNISPKLHVDKGFVNILMTSFLQYISSEVNPPSDETDSSSAPSKEQLEQEKQLLLSFKPVMQKFLHDHVDLQVSALYALQVHCYNSNFPKGMLLRFFVHFYDMEIIEEEAFLAWKEDITQEFPGKGKALFQVNQWLTWLETAEEEESEEEAD
